# Taken from: PubChem BioAssay AID1224828 (NIAID, 2016)
# Screen: 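Knock-downs that increase or decrease LPS-induced p65 nuclear translocation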 (primary screen)
# Cell system: mouse RAW264.7 G9 macrophage reporter cells (GFP-p65, Tnf promoter-mCherry)
# Knock-down reagent: siRNA pool against mouse genes, 100 nM
# Timing: 2 days siRNA transfection, then 40 min LPS before fixation
# Challenge: LPS (Salmonella minnesota R595) at 10 ng/ml
# Detection: 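Microscopy ratio of nuclear to perinuclear-ring GFP-p65 signal, scaled to the plate median; gene score is the average of two replicate robust z-scores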
# Direction: p65 translocation robust z-score: higher = more nuclear NF-kappaB p65 after LPS than the plate median; nuclear/cytoplasmic p65 ratio: higher = more nuclear NF-kappaB p65
# Call rule: 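Called active when z exceeds 3.3 or falls under -1.56 (median of Tlr4 controls), giving activity score of at least 50; no calls for control wells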
# Meaning of the calls: active = hit (p65 shift raised or lowered); inactive = no clear change
# Here is an unselected part of about 17,000 reagents. Of all reagents, 762 (4.5%) are marked active. 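Active calls include both raised and lowered p65 entry, mostly lowered; wells with fewer than 50 cells lack a z-score.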 The raw values are shown without normalisation. A number with no mark means an inactive call. Reagent sequences are not shown.
Gene,PubChem SID,p65 translocation robust z-score,"nuclear/cytoplasmic p65 ratio, rep 1","nuclear/cytoplasmic p65 ratio, rep 2",low cell count flag
Tgoln1 (trans-golgi network protein),SID315469863,,1.32,1.15,fewer than 50 cells per well; well left out of scoring
Klk7,SID315470277,1.36,1.76,1.6,enough cells to score
Plet1 (placenta expressed transcript 1),SID315475332,,1.24,1.28,fewer than 50 cells per well; well left out of scoring
Ubap2l (ubiquitin-associated protein 2-like),SID315474958,-0.38,1.14,1.26,enough cells to score
Tcaf2 (TRPM8 channel-associated factor 2),SID315479004,-1.17,1.4,1.66,enough cells to score
Afap1l2 (actin filament associated protein 1-like 2),SID315478484,0.03,1.72,1.4,enough cells to score
Pglyrp2 (peptidoglycan recognition protein 2),SID315471815,-0.12,1.36,1.28,enough cells to score
"Tlx2 (T cell leukemia, homeobox 2)",SID315469749,-1.42,1.39,1.25,enough cells to score
Rnf185 (ring finger protein 185),SID315477437,-0.66,1.34,1.3,enough cells to score
"Grin1 (glutamate receptor, ionotropic, NMDA1 (zeta 1))",SID315467033,0.19,1.49,1.37,enough cells to score
Slc44a4,SID315473982,,1.5,1,fewer than 50 cells per well; well left out of scoring
"Rprm (reprimo, TP53 dependent G2 arrest mediator candidate)",SID315473279,1.03,1.82,1.71,enough cells to score
"St3gal1 (ST3 beta-galactoside alpha-2,3-sialyltransferase 1)",SID315469236,-1.16,1.39,1.38,enough cells to score
"Tubb5 (tubulin, beta 5 class I)",SID315469879,0.28,1.65,1.45,enough cells to score
Avpi1 (arginine vasopressin-induced 1),SID315473820,0.41,1.74,1.49,enough cells to score

Continued, starting with the last 2 of the part before.
Gene,PubChem SID,p65 translocation robust z-score,"nuclear/cytoplasmic p65 ratio, rep 1","nuclear/cytoplasmic p65 ratio, rep 2",low cell count flag
"Tubb5 (tubulin, beta 5 class I)",SID315469879,0.28,1.65,1.45,enough cells to score
Avpi1 (arginine vasopressin-induced 1),SID315473820,0.41,1.74,1.49,enough cells to score
Or4a71 (olfactory receptor family 4 subfamily A member 71),SID315480585,-0.28,1.56,1.3,enough cells to score
Fmn2 (formin 2),SID315471233,2.35,1.88,1.84,enough cells to score
Asic1 (acid-sensing ion channel 1),SID315465244,1.8,1.86,1.98,enough cells to score
Ikzf2 (IKAROS family zinc finger 2),SID315470155,0.27,1.52,1.57,enough cells to score
Cdin1 (CDAN1 interacting nuclease 1),SID315481882,-0.16,1.21,1.5,enough cells to score
Vwa1 (von Willebrand factor A domain containing 1),SID315479871,0.82,1.32,1.45,enough cells to score
Dgat1 (diacylglycerol O-acyltransferase 1),SID315466317,-0.15,1.51,1.34,enough cells to score
Tia1 (cytotoxic granule-associated RNA binding protein 1),SID315469715,0.4,1.57,1.38,enough cells to score
Pcx (pyruvate carboxylase),SID315468424,-1.21,1.32,1.22,enough cells to score
